Values quoted from earlier work in patent publication US11952334B2, “Cocrystals of ubiquinone and compositions comprising them” (CENTER FOR INTELLIGENT RESEARCH IN CRYSTAL ENGINEERING, S.L., priority 2018, dated 2024).

Settings: cited from earlier work

COC1=C(OC)C(=O)C(C/C=C(\C)CC/C=C(\C)CC/C=C(\C)CC/C=C(\C)CC/C=C(\C)CC/C=C(\C)CC/C=C(\C)CC/C=C(\C)CC/C=C(\C)CCC=C(C)C)=C(C)C1=O [Compound P57, ubiquinone]
Solubility in water (in words): very low solubility in water
